According to article PMC7022712:
For at least one entry, the source does not settle the construct or the ends of the probe. Weaker means in comparison with the reference protein, sequence or condition of that experiment.

Target: Dnmt3a-CD P187R P773R (Mus musculus) (UniProt O88508)
Assay: fluorescence polarization
Conditions: 100 uM AdoHcy, Kd not determined, weak binding retained, Buffer A: 20 mM HEPES pH 7.5, 100 mM KCl, 1 mM EDTA, 1 mM DTT, 25 C, DNA 100 nM (Methods) or 10 nM (Figure 6 legend), Hill fit, recombinant protein, protein details: C-terminal His6, label: 5'-FAM on strand 1 via aminohexyl linker

Sequence: CTGAATACTACTTGCGCTCTCTAACCTGAT (double strand) [fCG/CG]
- binding result: binds more weakly
